Library screening results

Protein sequences, listed by entry. Tags and fused reporters are not part of them.
UniProt E9BF75, entry or part of it: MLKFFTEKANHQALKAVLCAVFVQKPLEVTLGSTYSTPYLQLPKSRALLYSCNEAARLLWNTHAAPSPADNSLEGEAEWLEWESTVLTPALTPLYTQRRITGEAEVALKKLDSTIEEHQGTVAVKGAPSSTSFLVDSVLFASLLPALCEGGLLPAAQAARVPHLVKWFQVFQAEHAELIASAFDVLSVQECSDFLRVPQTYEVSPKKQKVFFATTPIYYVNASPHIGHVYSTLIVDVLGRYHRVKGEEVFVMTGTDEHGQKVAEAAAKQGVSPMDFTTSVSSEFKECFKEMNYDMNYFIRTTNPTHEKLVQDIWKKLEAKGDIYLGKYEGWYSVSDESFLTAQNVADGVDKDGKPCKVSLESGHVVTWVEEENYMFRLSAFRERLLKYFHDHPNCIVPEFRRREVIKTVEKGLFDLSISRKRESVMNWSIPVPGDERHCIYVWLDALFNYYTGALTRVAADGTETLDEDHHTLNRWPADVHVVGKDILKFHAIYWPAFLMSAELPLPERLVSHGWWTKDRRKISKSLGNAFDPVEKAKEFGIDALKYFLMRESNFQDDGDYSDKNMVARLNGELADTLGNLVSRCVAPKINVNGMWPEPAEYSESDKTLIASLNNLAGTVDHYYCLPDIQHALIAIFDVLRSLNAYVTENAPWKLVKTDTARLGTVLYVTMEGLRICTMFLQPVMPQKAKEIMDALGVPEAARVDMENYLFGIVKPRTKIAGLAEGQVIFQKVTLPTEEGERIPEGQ

Data taken from ChEMBL document CHEMBL3988442, “University of Dundee, Small-Polar-MMV Screening Library” (2021).

All values are in %.
How 0% and 100% were set is not recorded. Most values in the screen are low, and negative values occur.
Compounds were drawn at random from those tested, without regard to their results.
A dash means the value is not listed here; it may have been measured.

Mtb heat-shock: 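Assay on Mycobacterium tuberculosis, filed only as a heat shock assay from Cornell; the read-out is not stated. The concentration is filed as 10 mM, unlikely as a test dose, so the dose is not known. The record gives no direction; compounds that gave an IC50 in retests scored well above the rest, so higher reads as stronger inhibition. Size under these conditions: about 69,000 compounds, about 930 of them at 50% or above in at least one test.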
Mtb growth Cornell: 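Whole-cell assay for inhibitors of Mycobacterium tuberculosis growth, labelled Cornell in the record; the read-out is not stated. The concentration is filed as 10 mM, unlikely as a test dose, so the dose is not known. Higher means stronger inhibition (inferred from two other growth screens of the library). Of about 53,000 compounds tested this way, about 900 (1.7%) reached 50% or more in at least one test.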
LdMetRS: 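Primary screen of methionyl-tRNA synthetase; the read-out is not stated. Target: Methionyl-tRNA synthetase (putative), Leishmania donovani (UniProt E9BF75). The test concentration is not given. Values are per cent inhibition. Size under these conditions: about 68,000 compounds, about 24 of them at 50% or above in at least one test.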

| Compound | Mtb heat-shock | Mtb growth Cornell | LdMetRS |
|---|---|---|---|
| `CCc1nccn1C1CCCN(C(=O)COCC(F)(F)F)C1` (configuration not stated) | -21.46% | - | 8.421% |
| `Cc1nc(N)ncc1C(=O)N1CCCC(CCc2ccc(F)c(F)c2)C1` (configuration not stated) | 11.99% | - | 19.06% |
| `COCc1ccccc1NC(=O)c1ccoc1` | -24.95% | -40.55% | 8.192% |
| `c1ccc(OCCCn2ccnc2-c2cn(C3CCNCC3)nn2)cc1` | 28.24% | -25.3% | 19.05% |
| `CSc1ncc(C(=O)NCCn2nccc2C)cn1` | 12.17% | 4.392% | 7.764% |
| `COCC(=O)N1CCc2nc(C(=O)N(C)C)sc2CC1` | -23.49% | -28.75% | 3.986% |
| `CCc1nnc(CN2CCC(c3nc4cc(Cl)ccc4o3)CC2)o1` | 7.175% | - | 8.122% |
| `CN(Cc1ccncc1)C1COC2(CCN(Cc3ccsc3)CC2)C1` (configuration not stated) | - | - | 1.961% |
| `CC(=O)Nc1ccc(Oc2cc(C)nc(C3CCCNC3)c2)cc1.Cl` (configuration not stated) | -20.86% | 31.88% | - |
| `CCS(=O)(=O)N1CCC(OC)c2ccccc2N(CC(=O)NC)C(=O)C1` (configuration not stated) | 26.71% | -4.814% | 9.589% |
| `[H][C@]12CC[C@]([H])(CN(Cc3ccccc3)C1)N(C(=O)c1ccc(F)cc1F)C2` | 11.33% | - | - |
| `COCC(=O)N1CCCC1c1ccc(C(=O)NCc2ccccc2Cl)s1` (configuration not stated) | 20.39% | - | 4.569% |
| `O=C1CC2(CCN(Cc3ccoc3)CC2)CN1Cc1cc(F)cc(F)c1` | 22.98% | 21.94% | 16.34% |
| `CN(C)CCN1CCC2(CC1)CN(Cc1cccnc1)C(=O)CO2.O=C(O)C(F)(F)F.O=C(O)C(F)(F)F.O=C(O)C(F)(F)F` | 8.81% | 3.232% | - |
| `CC(=O)NCc1nnc2n1CCN(c1ncnc3c1CCC3)CC2` | -6.439% | -24.75% | 3.846% |
| `COc1ccc(CNC(C)c2ccccc2Cl)c(OC)c1OC` (configuration not stated) | - | - | 11.14% |
| `CCC[C@H]1CN(C(=O)c2ccc3[nH]c(CO)nc3c2)C[C@@H]1N` | 4.189% | -6.632% | 19.2% |
| `CCSCc1cccc(NC(=O)N(C)Cc2ncnn2C)c1` | 15.29% | 3.14% | 15.84% |
| `O=C(O)[C@@H]1CN(C(=O)c2ccc(O)cc2)C[C@H]1c1cccc(F)c1` | -18.83% | -22.48% | 4.294% |
| `Cc1nccn1CCCC(=O)N1CCC(N(C)c2cccnn2)CC1` | -4.745% | -17.45% | 17.09% |
| `CCOc1ccc2[nH]c3c(N(C)CC4OCCO4)ncnc3c2c1` | 19.48% | 46.59% | 11.21% |
| `CC(SCc1cc(Br)cc2cccnc12)C(N)=O` (configuration not stated) | -11.71% | 16.01% | 4.839% |
| `NC(=O)Cn1cc(NC(=O)N2CCN(c3ccc(F)cc3)CC2)cn1` | 24.19% | - | 8.421% |
| `Cc1cc(C(=O)N2CCc3ncnc(-c4cnn(C)c4)c3CC2)no1` | -15.5% | - | 11.17% |
| `O=C(CC1CC1)NCc1cn2c(n1)CN(C(=O)C1CCOCC1)CC2` | 5.454% | -29.49% | 15.56% |
| `COCc1cnc2n1CCN(C(=O)c1ocnc1C)C2C` (configuration not stated) | -21.65% | -55.24% | -0.6536% |
| `O=C(CCOCC(F)(F)F)N1CCCC1c1noc(C2CC2)n1` (configuration not stated) | 4.821% | -44.99% | 18.8% |
| `COC(=O)c1ccc(C)c(N2CCNC2=O)c1` | 18.17% | -50.15% | 19.41% |
| `Cc1nc2ccc(-n3ncnc3[C@@H]3CCCN3S(C)(=O)=O)cc2s1` | -8.919% | -48.32% | -1.344% |
| `CN1CC2(CCCN(c3nc(N)nc4c3CCCC4)C2)OC1=O` (configuration not stated) | -28.82% | 16.17% | 10.08% |
| `Cc1noc(C)c1CS(=O)(=O)CC(=O)NCCc1cccs1` | 7.617% | 7.085% | 14.51% |
| `O=C(O)CSc1nnc(-c2ccn[nH]2)n1-c1cccc(C(F)(F)F)c1` | -9.237% | 9.069% | 7.843% |
| `O=C(O)C(F)(F)F.[H][C@@]12C[C@H](C(=O)NC)[C@@]([H])(CN(Cc3cccc(C)c3)C1)O2` | 19.67% | 5.031% | - |
| `CC(C)(C)OC(=O)NC(C)(C)c1noc(CN2CCCCC2)n1` | 1.913% | -0.08296% | 8.78% |
| `COc1cc(F)ccc1-c1cc(N)ccn1` | -29.48% | 5.682% | 16.77% |
| `O=C(O)C(F)(F)F.[H][C@@]12CC(=O)N(c3ccsc3)[C@@]1([H])CCN2Cc1ccc(C)o1` | -6.642% | -14.09% | - |
| `Cc1cc(C(=O)N(C)C2CCS(=O)(=O)C2)c2ccc(F)cc2n1` (configuration not stated) | -11.81% | -10.02% | 1.52% |
| `O=C(O)C(F)(F)F.[H][C@@]12CCN(c3ccc(C)nn3)[C@@]1([H])CCN2C(=O)c1cscn1` | -29.32% | -16.83% | - |
| `Cn1ccc(C(=O)N2CCOC(c3ccccc3)C2)cc1=O` (configuration not stated) | 13.55% | -41.96% | 10.14% |
| `Cn1cc(Br)c(=O)c(NS(=O)(=O)c2ccc3c(c2)CCC3)c1` | -11.89% | - | 10.66% |
| `Cc1cccc(CN2CCC3(CCN(c4ccccn4)C3)C2=O)c1` (configuration not stated) | - | - | 13.8% |
| `Cc1ncsc1C(=O)N(C)Cc1cccc(Cl)c1` | 6.256% | - | 13.27% |
| `CN(CC(=O)NCCC#N)C(c1ccccc1)c1ccccc1` | 9.208% | -53.06% | 10.99% |
| `CN(C)c1cccc(C(=O)NCC(O)c2cccs2)c1` (configuration not stated) | -21.98% | -14.76% | 2.448% |
| `CNc1ncc2c(n1)CN(CCc1ccc(Cl)cc1)C2=O` | -4.24% | 6.698% | 17.85% |
| `CCN1CCCC12CCN(C(=O)c1ccsc1)CC2` | - | - | 9.42% |
| `CN1C[C@H](O)C[C@H]1c1nc(-c2ccc3c(c2)OCO3)no1` | -0.7347% | -4.541% | 10.53% |
| `N#Cc1cccnc1N1CCCC(CO)(Cc2cccc(Cl)c2)C1` (configuration not stated) | -22.35% | 5.217% | 7.116% |
| `CNC(=O)CN(C)c1nc(-c2ccc(C(N)=O)cc2)nc2c1CCNC2` | -8.861% | - | 4.961% |
| `CN(CC(=O)N1CCC(Oc2ccc(C(F)(F)F)cn2)CC1)S(C)(=O)=O` | -5.563% | - | 12.14% |
| `Cc1nnn2c1COC(CNCc1ccccn1)C2.O=C(O)C(F)(F)F` (configuration not stated) | -0.6304% | 11.66% | - |
| `Cc1cc(F)ccc1S(=O)(=O)N1CCN(C)c2ccncc21` | -16.31% | 9.396% | 10.31% |
| `O=C(CSc1ccc(F)c(F)c1)NS(=O)(=O)c1ccc2c(c1)OCCO2` | 5.132% | 30.23% | 12.27% |
| `Cc1cc(S(=O)(=O)N(CCO)C2CC2)ccc1F` | -32.75% | 18.51% | 5.866% |
| `CN(CC1Cc2ccccc2CN1C)C(=O)Cc1cccs1` (configuration not stated) | -3.51% | -14.8% | 9.355% |
| `Cc1c(C(C)NC(=O)Nc2ccc(F)c(F)c2)cnn1C` (configuration not stated) | 4.957% | 23.13% | -0.2564% |
| `Cc1nccn1C1CCCN(C(=O)CCCNc2ncccn2)C1` (configuration not stated) | -5.873% | -23.93% | 23.36% |
| `c1cncc(C2COC3(CCN(Cc4ccsc4)CC3)C2)c1` (configuration not stated) | - | - | 5.076% |
| `CN(CCCc1ccccc1)C(=O)c1ccccc1NCC(=O)O` | -4.107% | 20.23% | 11.2% |
| `CCS(=O)(=O)N1CCCC2(CCCN2C(=O)c2cscn2)C1` (configuration not stated) | 16.02% | 20.51% | 6.383% |
| `COc1ccc(-c2noc(CN3CCCC3Cn3cccn3)n2)cc1` (configuration not stated) | -8.672% | 15.03% | 12.43% |
| `Cc1ccc(C(=O)NCC2(O)CCOCC2)cc1F` | -2.987% | 25.4% | 9.783% |
| `COc1cc(N2CCC3(CCN(Cc4nccs4)CC3)C2)ncn1.O=C(O)C(F)(F)F` | 24.13% | 13.2% | - |
| `CCn1c(C)nc2cc(NC(=O)CC3CCCCO3)ccc21` (configuration not stated) | 17.7% | 9.884% | 9.006% |
| `COCCN1CCO[C@@H]2CN(Cc3ccc(C)o3)C[C@@H]2C1` | - | - | 17.75% |
| `CCNC(=O)[C@@H]1C[C@H](N)CN1Cc1ccc(Sc2ccc(C)cc2)o1` | -0.5054% | 12.95% | 23.85% |
| `O=C(O)C(F)(F)F.[H][C@]12CCN(C(=O)c3ccc4[nH]ccc4c3)C[C@@]1([H])OCCN(C)C2` | -0.2531% | 0.009434% | - |

The first 8 entries again:

* CCc1nccn1C1CCCN(C(=O)COCC(F)(F)F)C1 (configuration not stated) | Mtb heat-shock: -21.46%; LdMetRS: 8.421%
* Cc1nc(N)ncc1C(=O)N1CCCC(CCc2ccc(F)c(F)c2)C1 (configuration not stated) | Mtb heat-shock: 11.99%; LdMetRS: 19.06%
* COCc1ccccc1NC(=O)c1ccoc1 | Mtb heat-shock: -24.95%; Mtb growth Cornell: -40.55%; LdMetRS: 8.192%
* c1ccc(OCCCn2ccnc2-c2cn(C3CCNCC3)nn2)cc1 | Mtb heat-shock: 28.24%; Mtb growth Cornell: -25.3%; LdMetRS: 19.05%
* CSc1ncc(C(=O)NCCn2nccc2C)cn1 | Mtb heat-shock: 12.17%; Mtb growth Cornell: 4.392%; LdMetRS: 7.764%
* COCC(=O)N1CCc2nc(C(=O)N(C)C)sc2CC1 | Mtb heat-shock: -23.49%; Mtb growth Cornell: -28.75%; LdMetRS: 3.986%
* CCc1nnc(CN2CCC(c3nc4cc(Cl)ccc4o3)CC2)o1 | Mtb heat-shock: 7.175%; LdMetRS: 8.122%
* CN(Cc1ccncc1)C1COC2(CCN(Cc3ccsc3)CC2)C1 (configuration not stated) | LdMetRS: 1.961%